Assay results published in the supplement of paper PMC10849652.
This is one part of the list.

Sequences of proteins named here, by UniProt entry; tags and fusion partners are left off. A change or cut given only in a name is not applied to a line headed by its entry.
UniProt Q5T4S7, whole entry, looked up: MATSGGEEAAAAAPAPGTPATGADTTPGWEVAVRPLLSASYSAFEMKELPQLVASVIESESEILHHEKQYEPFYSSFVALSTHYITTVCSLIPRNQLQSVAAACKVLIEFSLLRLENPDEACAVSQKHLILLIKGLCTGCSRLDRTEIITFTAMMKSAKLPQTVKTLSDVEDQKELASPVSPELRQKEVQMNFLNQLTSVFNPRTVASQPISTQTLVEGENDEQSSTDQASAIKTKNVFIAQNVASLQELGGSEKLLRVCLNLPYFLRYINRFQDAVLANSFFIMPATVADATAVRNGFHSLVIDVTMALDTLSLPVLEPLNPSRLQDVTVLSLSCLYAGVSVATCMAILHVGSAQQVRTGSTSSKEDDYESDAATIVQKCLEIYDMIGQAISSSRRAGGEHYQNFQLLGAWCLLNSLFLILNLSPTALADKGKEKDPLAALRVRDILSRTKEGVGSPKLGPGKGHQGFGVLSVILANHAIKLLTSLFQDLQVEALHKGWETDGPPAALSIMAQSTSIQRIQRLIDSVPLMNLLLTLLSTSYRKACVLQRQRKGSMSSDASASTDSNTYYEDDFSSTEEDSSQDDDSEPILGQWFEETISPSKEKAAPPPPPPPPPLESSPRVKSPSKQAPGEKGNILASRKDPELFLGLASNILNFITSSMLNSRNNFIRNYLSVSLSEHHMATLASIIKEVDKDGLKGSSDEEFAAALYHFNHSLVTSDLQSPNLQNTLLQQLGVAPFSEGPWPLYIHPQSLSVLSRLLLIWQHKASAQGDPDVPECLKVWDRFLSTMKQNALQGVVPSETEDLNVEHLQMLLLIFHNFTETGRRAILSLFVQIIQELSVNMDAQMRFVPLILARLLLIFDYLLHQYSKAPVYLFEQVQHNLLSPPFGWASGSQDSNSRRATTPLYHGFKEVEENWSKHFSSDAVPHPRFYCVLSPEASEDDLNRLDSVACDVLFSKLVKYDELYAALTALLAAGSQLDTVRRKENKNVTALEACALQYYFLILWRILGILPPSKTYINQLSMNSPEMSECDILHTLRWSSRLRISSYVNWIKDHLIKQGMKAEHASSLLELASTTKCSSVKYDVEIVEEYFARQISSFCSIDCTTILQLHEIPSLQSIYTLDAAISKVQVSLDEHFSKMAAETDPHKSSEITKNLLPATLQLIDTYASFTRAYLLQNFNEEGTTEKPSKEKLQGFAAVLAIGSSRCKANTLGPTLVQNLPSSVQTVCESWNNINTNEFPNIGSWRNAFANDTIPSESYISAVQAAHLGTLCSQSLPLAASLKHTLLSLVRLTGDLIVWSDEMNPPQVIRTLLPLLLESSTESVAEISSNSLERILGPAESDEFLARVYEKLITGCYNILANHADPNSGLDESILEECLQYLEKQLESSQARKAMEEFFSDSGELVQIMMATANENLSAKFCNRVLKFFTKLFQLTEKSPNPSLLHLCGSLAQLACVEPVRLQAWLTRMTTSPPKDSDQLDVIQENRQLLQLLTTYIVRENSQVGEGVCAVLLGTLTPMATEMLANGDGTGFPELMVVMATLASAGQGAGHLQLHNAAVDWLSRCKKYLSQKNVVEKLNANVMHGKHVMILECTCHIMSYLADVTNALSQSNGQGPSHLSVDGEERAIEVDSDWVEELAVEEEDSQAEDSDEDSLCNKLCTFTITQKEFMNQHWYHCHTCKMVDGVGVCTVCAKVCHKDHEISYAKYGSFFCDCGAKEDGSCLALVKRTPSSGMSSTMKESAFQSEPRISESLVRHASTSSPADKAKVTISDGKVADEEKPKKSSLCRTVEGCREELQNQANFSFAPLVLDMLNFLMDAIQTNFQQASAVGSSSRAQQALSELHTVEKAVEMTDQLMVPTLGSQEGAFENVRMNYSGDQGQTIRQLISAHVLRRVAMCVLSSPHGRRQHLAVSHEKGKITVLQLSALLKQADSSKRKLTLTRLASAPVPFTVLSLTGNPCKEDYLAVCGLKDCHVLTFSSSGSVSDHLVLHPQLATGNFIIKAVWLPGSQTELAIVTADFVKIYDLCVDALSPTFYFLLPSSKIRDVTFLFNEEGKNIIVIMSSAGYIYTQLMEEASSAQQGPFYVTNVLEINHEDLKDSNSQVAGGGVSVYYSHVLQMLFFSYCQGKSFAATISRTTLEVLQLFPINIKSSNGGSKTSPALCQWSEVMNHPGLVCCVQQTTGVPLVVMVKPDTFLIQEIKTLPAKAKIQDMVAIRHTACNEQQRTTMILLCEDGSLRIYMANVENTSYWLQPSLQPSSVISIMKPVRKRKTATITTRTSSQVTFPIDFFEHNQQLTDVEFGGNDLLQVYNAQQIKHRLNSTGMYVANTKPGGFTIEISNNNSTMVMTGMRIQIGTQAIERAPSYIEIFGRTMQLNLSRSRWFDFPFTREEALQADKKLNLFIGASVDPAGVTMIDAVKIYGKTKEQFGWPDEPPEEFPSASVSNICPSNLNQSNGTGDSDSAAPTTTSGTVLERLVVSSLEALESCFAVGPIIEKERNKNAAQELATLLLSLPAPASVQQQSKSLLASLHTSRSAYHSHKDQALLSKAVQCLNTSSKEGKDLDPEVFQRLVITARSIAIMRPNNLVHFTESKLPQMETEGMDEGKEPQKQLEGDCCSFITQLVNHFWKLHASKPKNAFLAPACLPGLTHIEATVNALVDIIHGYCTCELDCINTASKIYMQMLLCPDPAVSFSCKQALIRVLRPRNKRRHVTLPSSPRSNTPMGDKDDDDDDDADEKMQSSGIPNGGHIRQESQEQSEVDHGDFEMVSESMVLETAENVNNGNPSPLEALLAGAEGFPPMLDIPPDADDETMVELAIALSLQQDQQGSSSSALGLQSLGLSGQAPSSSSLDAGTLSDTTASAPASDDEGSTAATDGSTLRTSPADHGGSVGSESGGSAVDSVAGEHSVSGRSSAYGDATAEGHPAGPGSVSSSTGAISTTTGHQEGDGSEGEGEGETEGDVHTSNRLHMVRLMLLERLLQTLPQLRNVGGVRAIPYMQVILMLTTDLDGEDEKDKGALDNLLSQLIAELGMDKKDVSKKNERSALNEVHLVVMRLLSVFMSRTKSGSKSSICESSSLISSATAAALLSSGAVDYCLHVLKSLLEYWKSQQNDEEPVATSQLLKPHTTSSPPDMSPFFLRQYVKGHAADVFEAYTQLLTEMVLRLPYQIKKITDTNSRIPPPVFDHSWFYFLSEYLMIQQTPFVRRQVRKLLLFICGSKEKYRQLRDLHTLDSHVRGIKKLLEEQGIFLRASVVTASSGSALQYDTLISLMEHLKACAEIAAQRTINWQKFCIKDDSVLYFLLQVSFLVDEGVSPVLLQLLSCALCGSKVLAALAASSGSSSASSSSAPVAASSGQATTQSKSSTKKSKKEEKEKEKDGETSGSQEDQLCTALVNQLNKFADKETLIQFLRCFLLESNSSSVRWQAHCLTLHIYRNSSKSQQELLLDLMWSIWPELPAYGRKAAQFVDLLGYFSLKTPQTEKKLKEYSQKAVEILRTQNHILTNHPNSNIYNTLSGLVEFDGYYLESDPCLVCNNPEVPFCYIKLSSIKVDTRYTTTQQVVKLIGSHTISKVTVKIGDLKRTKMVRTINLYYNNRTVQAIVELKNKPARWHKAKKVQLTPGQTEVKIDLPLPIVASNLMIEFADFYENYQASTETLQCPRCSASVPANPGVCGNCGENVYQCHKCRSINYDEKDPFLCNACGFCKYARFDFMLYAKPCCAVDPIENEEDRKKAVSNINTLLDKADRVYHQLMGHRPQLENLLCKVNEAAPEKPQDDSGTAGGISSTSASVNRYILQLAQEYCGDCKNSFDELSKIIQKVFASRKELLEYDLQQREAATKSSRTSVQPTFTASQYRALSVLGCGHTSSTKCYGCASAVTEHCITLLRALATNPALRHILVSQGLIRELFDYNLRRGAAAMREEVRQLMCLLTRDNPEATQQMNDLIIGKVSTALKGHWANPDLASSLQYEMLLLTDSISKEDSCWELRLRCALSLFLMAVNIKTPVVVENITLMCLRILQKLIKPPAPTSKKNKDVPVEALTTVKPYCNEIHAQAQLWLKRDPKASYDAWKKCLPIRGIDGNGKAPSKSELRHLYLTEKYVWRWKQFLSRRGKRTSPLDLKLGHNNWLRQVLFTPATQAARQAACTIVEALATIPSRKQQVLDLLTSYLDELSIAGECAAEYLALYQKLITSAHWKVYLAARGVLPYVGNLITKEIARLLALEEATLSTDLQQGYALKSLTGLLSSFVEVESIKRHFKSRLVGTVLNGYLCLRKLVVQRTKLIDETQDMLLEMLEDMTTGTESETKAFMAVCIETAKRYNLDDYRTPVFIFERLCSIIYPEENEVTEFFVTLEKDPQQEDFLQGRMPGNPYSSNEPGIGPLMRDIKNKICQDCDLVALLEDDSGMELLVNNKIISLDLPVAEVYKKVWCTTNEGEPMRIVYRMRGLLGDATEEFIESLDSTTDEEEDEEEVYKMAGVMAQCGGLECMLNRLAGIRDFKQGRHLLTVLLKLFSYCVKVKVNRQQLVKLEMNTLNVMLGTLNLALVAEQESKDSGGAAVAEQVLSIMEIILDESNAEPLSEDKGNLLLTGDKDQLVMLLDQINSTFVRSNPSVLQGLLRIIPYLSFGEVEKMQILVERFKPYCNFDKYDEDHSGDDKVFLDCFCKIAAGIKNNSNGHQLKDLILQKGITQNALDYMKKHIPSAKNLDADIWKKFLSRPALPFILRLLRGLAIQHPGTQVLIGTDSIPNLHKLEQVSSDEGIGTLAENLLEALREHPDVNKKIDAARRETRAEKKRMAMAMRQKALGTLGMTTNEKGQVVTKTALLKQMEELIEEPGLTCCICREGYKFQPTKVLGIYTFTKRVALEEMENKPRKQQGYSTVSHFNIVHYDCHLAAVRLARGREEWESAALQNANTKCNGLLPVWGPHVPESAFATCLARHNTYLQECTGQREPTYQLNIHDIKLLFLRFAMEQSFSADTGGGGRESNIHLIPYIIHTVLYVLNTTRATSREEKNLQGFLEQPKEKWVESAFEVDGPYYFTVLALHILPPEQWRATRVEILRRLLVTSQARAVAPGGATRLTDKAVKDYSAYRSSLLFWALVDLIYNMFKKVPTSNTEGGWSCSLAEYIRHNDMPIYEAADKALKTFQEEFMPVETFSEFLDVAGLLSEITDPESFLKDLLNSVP
UniProt P07437, whole entry, looked up: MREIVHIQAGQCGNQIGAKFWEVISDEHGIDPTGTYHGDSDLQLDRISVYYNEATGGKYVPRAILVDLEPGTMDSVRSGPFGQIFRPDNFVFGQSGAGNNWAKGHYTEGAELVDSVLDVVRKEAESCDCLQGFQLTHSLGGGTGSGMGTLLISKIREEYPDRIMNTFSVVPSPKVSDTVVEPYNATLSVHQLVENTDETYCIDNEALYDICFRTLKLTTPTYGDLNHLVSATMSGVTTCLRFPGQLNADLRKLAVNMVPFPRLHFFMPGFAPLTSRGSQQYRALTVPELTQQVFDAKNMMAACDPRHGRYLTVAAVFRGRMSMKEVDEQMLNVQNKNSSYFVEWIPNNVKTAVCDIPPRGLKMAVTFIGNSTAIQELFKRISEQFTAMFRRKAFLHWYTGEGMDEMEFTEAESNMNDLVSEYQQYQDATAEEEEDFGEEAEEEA
UniProt Q9NPD8: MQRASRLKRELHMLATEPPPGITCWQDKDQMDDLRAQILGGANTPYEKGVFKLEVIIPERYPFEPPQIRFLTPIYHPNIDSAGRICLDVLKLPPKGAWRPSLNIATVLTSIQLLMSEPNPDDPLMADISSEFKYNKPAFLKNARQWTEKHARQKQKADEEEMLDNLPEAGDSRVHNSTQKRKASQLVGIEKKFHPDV
UniProt Q8WVY7: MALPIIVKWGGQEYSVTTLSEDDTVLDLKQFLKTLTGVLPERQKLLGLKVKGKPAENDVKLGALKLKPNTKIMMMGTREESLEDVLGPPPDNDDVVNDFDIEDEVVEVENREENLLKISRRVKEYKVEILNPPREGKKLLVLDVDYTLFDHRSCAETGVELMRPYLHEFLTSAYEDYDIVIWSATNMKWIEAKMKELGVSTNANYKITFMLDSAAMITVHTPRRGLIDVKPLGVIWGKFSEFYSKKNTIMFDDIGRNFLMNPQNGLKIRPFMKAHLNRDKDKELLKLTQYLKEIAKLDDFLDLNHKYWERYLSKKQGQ
UniProt Q9NX01: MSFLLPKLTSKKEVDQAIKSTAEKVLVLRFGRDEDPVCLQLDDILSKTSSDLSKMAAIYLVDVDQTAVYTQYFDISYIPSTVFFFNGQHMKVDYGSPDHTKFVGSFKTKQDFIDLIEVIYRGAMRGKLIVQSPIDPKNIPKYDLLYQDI
UniProt P51965: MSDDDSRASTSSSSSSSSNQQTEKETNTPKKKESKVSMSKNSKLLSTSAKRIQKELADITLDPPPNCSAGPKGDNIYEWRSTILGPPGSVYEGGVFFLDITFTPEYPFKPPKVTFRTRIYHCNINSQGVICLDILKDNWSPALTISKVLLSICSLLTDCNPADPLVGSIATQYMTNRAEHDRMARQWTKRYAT

Experiments:
Assay in all cases: log2 fold change, soluble protein after heating vs DMSO (PISA); higher = thermal stabilisation; K562 lysate, 10 uM; active = over 0.2 and 3.5 SD of the protein, either way, in both replicates (recomputed)
nilotinib = compound: Cc1cn(-c2cc(NC(=O)c3ccc(C)c(Nc4nccc(-c5cccnc5)n4)c3)cc(C(F)(F)F)c2)cn1 [nilotinib]
Procedure, shortened: (§1)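 The values are log-two fold changes in thermal stability compared with solvent controls and come from duplicates. They were obtained by TMTpro 16plex LC-MS/MS, with channel sums equalised, on the supernatant after 21,000xg for 90 min. That supernatant came from crude K562 extract at 1 mg/mL protein treated with 10 μM compound for 30 min, heated for 3 min across 48°C-58°C, pooled and brought to 0.5% NP-40 at 4°C.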

[1] = compound: Cc1nc(Nc2n[nH]c3c2CN(C(=O)N[C@H](CN(C)C)c2ccccc2)C3(C)C)c2sccc2n1
Procedure, shortened: as §1

dasatinib = compound: Cc1nc(Nc2ncc(C(=O)Nc3c(C)cccc3Cl)s2)cc(N2CCN(CCO)CC2)n1 [dasatinib]
Procedure, shortened: as §1

[2] = compound: Cc1ncc(-c2ccnc(Nc3ccc(S(C)(=O)=O)cc3)n2)n1C(C)C
Procedure, shortened: as §1

[3] = compound: Cn1cc(-c2ccc3c(c2)CCN3C(=O)Cc2cccc(C(F)(F)F)c2)c2c(N)ncnc21
Procedure, shortened: as §1

quisinostat = compound: Cn1cc(CNCC2CCN(c3ncc(C(=O)NO)cn3)CC2)c2ccccc21 [quisinostat]
Procedure, shortened: as §1

tipifarnib = compound: Cn1cncc1[C@@](N)(c1ccc(Cl)cc1)c1ccc2c(c1)c(-c1cccc(Cl)c1)cc(=O)n2C [tipifarnib]
Procedure, shortened: as §1

[4] = compound: NC(=O)Nc1cc(-c2cccc(F)c2)sc1C(=O)N[C@H]1CCCNC1
Procedure, shortened: as §1

[5] = compound: NC(=O)c1cnc(N[C@@H]2CCCC[C@@H]2N)nc1Nc1cccc(-n2nccn2)c1
Procedure, shortened: as §1

[6] = compound: NC1(c2ccc(-c3nc4ccn5c(=O)[nH]nc5c4cc3-c3ccccc3)cc2)CCC1
Procedure, shortened: as §1

Measured: log2 fold change

TUBGCP6 (UniProt Q96RT7)
inactive: nilotinib 0.065 | [1] 0.036 | dasatinib -0.131 | [2] 0.006 | [3] 0.064 | quisinostat 0.03 | tipifarnib -0.099 | [4] 0.093 | [5] 0.046 | [6] 0.026

UBIAD1 (UniProt Q9Y5Z9)
inactive: nilotinib 0.14 | [1] -0.014 | dasatinib 0.117 | [2] 0.125 | [3] -0.014 | quisinostat 0.096 | tipifarnib 0.04 | [4] -0.019 | [5] -0.034 | [6] -0.027

UBR4 (UniProt Q5T4S7)
inactive: nilotinib 0.007 | [1] 0.002 | dasatinib -0.027 | [2] 0.001 | [3] 0.018 | quisinostat -0.014 | tipifarnib -0.001 | [4] 0.023 | [5] -0.005 | [6] -0.001

TTPAL (UniProt Q9BTX7)
inactive: nilotinib 0 | [1] -0.006 | dasatinib 0.073 | [2] 0.011 | [3] -0.052 | quisinostat -0.043 | tipifarnib 0.058 | [4] 0.03 | [5] -0.02 | [6] 0.055

TUBGCP2 isoform 4 (UniProt Q9BSJ2)
inactive: nilotinib -0.016 | [1] 0.012 | dasatinib -0.058 | [2] 0.012 | [3] 0.064 | quisinostat -0.091 | tipifarnib -0.001 | [4] 0.037 | [5] 0 | [6] -0.016

UBA2 (UniProt Q9UBT2)
inactive: nilotinib 0.003 | [1] -0.026 | dasatinib -0.009 | [2] -0.006 | [3] 0.013 | quisinostat 0.069 | tipifarnib 0.013 | [4] 0.004 | [5] -0.014 | [6] 0.009

UBE2Q1 (UniProt Q7Z7E8)
inactive: nilotinib -0.017 | [1] -0.003 | dasatinib 0.014 | [2] 0.011 | [3] -0.019 | quisinostat 0.01 | tipifarnib 0.066 | [4] -0.052 | [5] -0.022 | [6] 0.001

TUBB (UniProt P07437)
inactive: nilotinib 0.067 | [1] 0.016 | dasatinib -0.043 | [2] -0.001 | [3] -0.011 | quisinostat 0.004 | tipifarnib 0.022 | [4] 0.048 | [5] -0.022 | [6] -0.003

UBR5 (UniProt O95071)
inactive: nilotinib 0.006 | [1] 0.027 | dasatinib -0.028 | [2] -0.019 | [3] 0.019 | quisinostat -0.059 | tipifarnib -0.02 | [4] 0.005 | [5] 0.013 | [6] -0.009

TYW3 (UniProt Q6IPR3)
inactive: nilotinib -0.033 | [1] 0.017 | dasatinib -0.006 | [2] 0.035 | [3] 0.027 | quisinostat -0.126 | tipifarnib -0.018 | [4] -0.014 | [5] 0.046 | [6] 0.017

UBE2T (UniProt Q9NPD8)
inactive: nilotinib 0.003 | [1] -0.006 | dasatinib -0.027 | [2] 0.01 | [3] -0.016 | quisinostat -0.025 | tipifarnib 0.015 | [4] -0.015 | [5] 0.027 | [6] 0.033

UBLCP1 (UniProt Q8WVY7)
inactive: nilotinib -0.014 | [1] 0.007 | dasatinib 0.03 | [2] -0.006 | [3] 0.002 | quisinostat 0.064 | tipifarnib -0.006 | [4] -0.011 | [5] 0.033 | [6] 0.045

U2AF2 (UniProt P26368)
inactive: nilotinib 0.045 | [1] -0.079 | dasatinib 0.004 | [2] 0 | [3] 0.001 | quisinostat 0.03 | tipifarnib 0.047 | [4] -0.102 | [5] 0.006 | [6] 0.027

UBE3C (UniProt Q15386)
inactive: nilotinib -0.006 | [1] 0.025 | dasatinib -0.047 | [2] -0.017 | [3] 0.049 | quisinostat 0.013 | tipifarnib 0.01 | [4] 0.061 | [5] 0.027 | [6] -0.053

UBE3A (UniProt Q05086)
inactive: nilotinib 0.006 | [1] 0.009 | dasatinib -0.026 | [2] 0.011 | [3] 0.011 | quisinostat -0.023 | tipifarnib -0.001 | [4] 0.006 | [5] -0.007 | [6] -0.017

TUT4 (UniProt Q5TAX3)
inactive: nilotinib -0.06 | [1] 0.02 | dasatinib -0.097 | [2] 0.001 | [3] -0.001 | quisinostat -0.054 | tipifarnib -0.045 | [4] 0.055 | [5] 0.048 | [6] -0.002

TXNL4B (UniProt Q9NX01)
inactive: nilotinib -0.047 | [1] -0.094 | dasatinib 0.021 | [2] -0.031 | [3] 0.041 | quisinostat -0.022 | tipifarnib 0.126 | [4] -0.07 | [5] 0.259 | [6] -0.051

UBE2G1 (UniProt P62253)
inactive: nilotinib -0.038 | [1] -0.005 | dasatinib 0.013 | [2] 0 | [3] -0.001 | quisinostat 0 | tipifarnib -0.004 | [4] -0.011 | [5] -0.013 | [6] 0.062

UBXN4 (UniProt Q92575)
inactive: nilotinib 0.005 | [1] 0.024 | dasatinib 0.042 | [2] 0.096 | [3] 0.019 | quisinostat -0.087 | tipifarnib -0.052 | [4] -0.014 | [5] -0.015 | [6] -0.004

UBXN6 (UniProt Q9BZV1)
inactive: nilotinib -0.033 | [1] 0.042 | dasatinib 0.017 | [2] -0.065 | [3] 0.046 | quisinostat 0.028 | tipifarnib 0.016 | [4] 0.013 | [5] 0.068 | [6] -0.013

TUT1 (UniProt Q9H6E5)
inactive: nilotinib -0.012 | [1] -0.038 | dasatinib -0.027 | [2] -0.006 | [3] -0.001 | quisinostat -0.045 | tipifarnib -0.045 | [4] 0.044 | [5] 0.004 | [6] -0.018

UBA3 (UniProt Q8TBC4)
inactive: nilotinib 0.057 | [1] -0.03 | dasatinib -0.003 | [2] 0.015 | [3] 0.019 | quisinostat -0.017 | tipifarnib 0.047 | [4] -0.005 | [5] -0.008 | [6] 0.021

TUSC3 isoform 2 (UniProt Q13454)
inactive: nilotinib -0.001 | [1] 0.065 | dasatinib 0.015 | [2] -0.036 | [3] -0.046 | quisinostat -0.049 | tipifarnib -0.06 | [4] 0.026 | [5] -0.006 | [6] -0.011

UBE4A isoform 2 (UniProt Q14139)
inactive: nilotinib 0.023 | [1] -0.009 | dasatinib -0.075 | [2] -0.022 | [3] 0.026 | quisinostat -0.018 | tipifarnib -0.003 | [4] 0.054 | [5] 0.002 | [6] 0.017

UBE2E1 (UniProt P51965)
inactive: nilotinib 0.045 | [1] 0.017 | dasatinib 0.034 | [2] 0.134 | [3] -0.025 | quisinostat 0.207 | tipifarnib -0.007 | [4] -0.011 | [5] -0.076 | [6] 0.122

UAP1L1 (UniProt Q3KQV9)
inactive: nilotinib -0.01 | [1] -0.011 | dasatinib -0.058 | [2] 0.007 | [3] 0.023 | quisinostat 0.06 | tipifarnib 0.058 | [4] 0.039 | [5] -0.091 | [6] 0.115

TTN isoform 12 (UniProt Q8WZ42)
inactive: nilotinib 0.032 | [1] -0.005 | dasatinib -0.081 | [2] 0.182 | [3] 0.229 | quisinostat -0.251 | tipifarnib -0.02 | [4] 0 | [5] 0.044 | [6] -0.062

TYMS (UniProt P04818)
inactive: nilotinib 0.012 | [1] -0.032 | dasatinib -0.023 | [2] -0.015 | [3] 0.01 | quisinostat -0.001 | tipifarnib -0.02 | [4] 0.034 | [5] 0.015 | [6] -0.032

UCHL3 (UniProt P15374)
inactive: nilotinib -0.031 | [1] 0.023 | dasatinib -0.003 | [2] -0.05 | [3] 0 | quisinostat 0.067 | tipifarnib 0.039 | [4] -0.005 | [5] -0.028 | [6] 0.069

UCK1 isoform 4 (UniProt Q9HA47)
inactive: nilotinib -0.058 | [1] 0.081 | dasatinib 0.137 | [2] 0.011 | [3] 0.011 | quisinostat -0.093 | tipifarnib -0.055 | [4] 0.036 | [5] -0.07 | [6] 0.044

Fetched one by one from the entries so far, two records:
UAP1L1 (UniProt Q3KQV9)
inactive: nilotinib -0.01 | [1] -0.011 | dasatinib -0.058 | [2] 0.007 | [3] 0.023 | quisinostat 0.06 | tipifarnib 0.058 | [4] 0.039 | [5] -0.091 | [6] 0.115

TYMS (UniProt P04818)
inactive: nilotinib 0.012 | [1] -0.032 | dasatinib -0.023 | [2] -0.015 | [3] 0.01 | quisinostat -0.001 | tipifarnib -0.02 | [4] 0.034 | [5] 0.015 | [6] -0.032
